Drawing on the odorant receptor screen of Mainland et al. (2015), this text covers odorant receptor activation for 4 molecules.

“And” between values parts separate entries of the source, which are not always exact repeats. Equal values may be shown once. The list shows a part of the results. Single wells; the ratio to wells without odorant was worked out here, and repeats agree poorly.

What all share (experiment): odorant receptor activation (CRE luciferase / Renilla) (fold of no-odor wells); higher = more activation
Common to all, as to conditions: 100 µM

For experiment [1], the system named is OR51A2 clone 1577.
Experiment [2] relates to OR51A4 G45C/L227P/R267G clone 1166.
Experiment [3] has as its system OR51B2 clone 1551.
Experiment [4] has as its system OR51B4 V36I/M147T clone 1552.
Experiment [5] concerns OR51B5 clone 1553.
Experiment [6] has as its system OR51B6 clone 1554.
For experiment [7], the system named is OR51D1 clone 1206.
Experiment [8] concerns OR51E1 S11N clone 1532.
Experiment [9] deals with OR51E1 clone 1129.
The subject of experiment [10] is OR51E2 clone 1205.
Experiment [11] deals with OR51F2 clone 1330.
For experiment [12], the system named is OR51G1 clone 1165.
For experiment [13], the system named is OR51G2 clone 1199.
Experiment [14] deals with OR51H1 clone 1187.
The test system of experiment [15] is OR51I1 clone 1555.
Experiment [16] concerns OR51I2 clone 1133.
Experiment [17] has as its system OR51J1 R75H clone 1698.
Experiment [18] has as its system OR51L1 I281M clone 1535.
Experiment [19] deals with OR51L1 T196I/A207V clone 1533.
The test system of experiment [20] is OR51L1 clone 1183.

As for `CS` [methanethiol], the odorant receptor activation worked out at 0.627 in experiment [1]; 1.01 in experiment [2]; 0.809 in experiment [3]; 0.613 in experiment [4]; 0.67 in experiment [5]; 0.923 in experiment [6]. For the same molecule, the odorant receptor activation in experiment [7] was found to be 0.819; in experiment [8] it was 0.91; in [9] it was 1.1; in experiment [10], 1; in [11], 0.829; in experiment [12], 1.03. In addition, the odorant receptor activation worked out at 1.09 in experiment [13]; 0.758 in [14]; 0.932 in experiment [15]; 0.883 in experiment [16]; 0.772 in [17]; 0.869 in experiment [18]. For the same molecule, the figures for the odorant receptor activation in experiment [19] and in experiment [20] were 0.847 and 1.19, respectively.
As for `CCCCOC(C)=O` [butyl acetate], the odorant receptor activation stood at 0.536 in [1]; 1.06 in experiment [2]; 1.1 in experiment [3]; 1.67 in experiment [4]; 0.505 in experiment [5]; 0.758 in experiment [6]. Moreover, the odorant receptor activation in experiment [7] amounted to 1.01; in [8], 0.972; in [9] it was 1.11; in experiment [10], 1.16; in experiment [11] it was 0.784; in [12], 0.939. For the same molecule, the odorant receptor activation in experiment [13] worked out at 0.972; in [14] it was 1.04; in experiment [15], 0.818; in experiment [16], 1.25; in experiment [17], 1.08; in experiment [18], 0.912. The odorant receptor activation in experiment [19] was 0.909; in [20] it was 0.911.
On to `CCC(C)=O` [2-butanone], for which the odorant receptor activation in experiment [1] was 0.737; in experiment [2] it was 1.08; in [3], 0.777; in experiment [4], 0.679; in experiment [5], 0.8; in experiment [6], 0.826. In addition, the odorant receptor activation stood at 1.2 in experiment [7]; 0.977 in experiment [8]; 1.28 in [9]; 0.633 in [10]; 0.74 in [11]; 0.841 in experiment [12]. Besides, the odorant receptor activation came out at 1.09 in [13]; 0.911 in [14]; 0.946 in experiment [15]; 0.989 in [16]; 0.714 in experiment [17]; 1.05 in experiment [18]. Further, the odorant receptor activation in experiment [19] came to 0.88; in experiment [20] it was 0.867.
Turning to `CCOc1cc(C=O)ccc1O` [ethyl vanillin], the odorant receptor activation was 0.856 in [1]; 1.2 and 0.978 in [2]; 0.955 in experiment [3]; 0.938 in [4]; 0.853 in experiment [5]; 1.62 in [6]. Moreover, the odorant receptor activation is 1.33 in experiment [7]; 1.11 and 2.04 and 1.14 in [8]; 1.7 and 1.22 in experiment [9]; 1.32 and 1.12 in experiment [10]; 0.63 and 1.06 in experiment [11]; 1.33 and 1.15 in experiment [12]. For the same molecule, the odorant receptor activation in [13] was 1.03 and 1.15; in experiment [14], 1.5 and 1.16; in experiment [15], 0.951; in experiment [16], 1.74 and 0.952; in experiment [17], 0.865; in [18], 1.06 and 1.86 and 1.22. Also, the odorant receptor activation in experiment [19] was 1.27 and 2.02 and 1.66; in experiment [20], 1.35 and 1.14.
